Drawing on article PMC3158102, this text covers binding for six molecules.

Chains of the proteins cited; added tags and fusions are not shown.
UniProt P25025: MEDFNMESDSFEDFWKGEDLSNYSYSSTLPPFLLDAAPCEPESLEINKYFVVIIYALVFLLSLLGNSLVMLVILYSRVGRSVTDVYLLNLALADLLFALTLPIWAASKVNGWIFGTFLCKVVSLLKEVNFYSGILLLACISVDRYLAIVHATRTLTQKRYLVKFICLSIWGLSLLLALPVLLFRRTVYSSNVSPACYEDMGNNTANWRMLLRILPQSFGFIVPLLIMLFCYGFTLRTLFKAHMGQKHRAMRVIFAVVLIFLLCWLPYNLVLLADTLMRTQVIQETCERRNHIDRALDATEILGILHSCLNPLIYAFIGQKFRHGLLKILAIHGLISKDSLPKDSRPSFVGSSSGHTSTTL

These are yes or no findings as the source states them, for the method shown. In cells and extracts the contact can be indirect. Here binding means that the protein was enriched with, or labelled near, the bait; the list need not be complete.

B1: Hsp 75 (protein, UniProt Q12931 60-704)
chain: STQTAEDKEEPLHSIISSTESVQGSTSKHEFQAETKKLLDIVARSLYSEKEVFIRELISNASDALEKLRHKLVSDGQALPEMEIHLQTNAEKGTITIQDTGIGMTQEELVSNLGTIARSGSKAFLDALQNQAEASSKIIGQFGVGFYSAFMVADRVEVYSRSAAPGSLGYQWLSDGSGVFEIAEASGVRTGTKIIIHLKSDCKEFSSEARVRDVVTKYSNFVSFPLYLNGRRMNTLQAIWMMDPKDVREWQHEEFYRYVAQAHDKPRYTLHYKTDAPLNIRSIFYVPDMKPSMFDVSRELGSSVALYSRKVLIQTKATDILPKWLRFIRGVVDSEDIPLNLSRELLQESALIRKLRDVLQQRLIKFFIDQSKKDAEKYAKFFEDYGLFMREGIVTATEQEVKEDIAKLLRYESSALPSGQLTSLSEYASRMRAGTRNIYYLCAPNRHLAEHSPYYEAMKKKDTEVLFCFEQFDELTLLHLREFDKKKLISVETDIVVDHYKEEKFEDRSPAAECLSEKETEELMAWMRNVLGSRVTNVKVTLRLDTHPAMVTVLEMGAARHFLRMQQLAKTQEERAQLLQPTLEINPRHALIKKLNQLRASEPGLAQLLVDQIYENAMIAAGLVDDPRAMVGRLNELLVKALERH
B2: 14-3-3 gamma (protein, UniProt P61981 1-247)
chain: MVDREQLVQKARLAEQAERYDDMAAAMKNVTELNEPLSNEERNLLSVAYKNVVGARRSSWRVISSIEQKTSADGNEKKIEMVRAYREKIEKELEAVCQDVLSLLDNYLIKNCSETQYESKVFYLKMKGDYYRYLAEVATGEKRATVVESSEKAYSEAHEISKEHMQPTHPIRLGLALNYSVFYYEIQNAPEQACHLAKTAFDDAIAELDTLNEDSYKDSTLIMQLLRDNLTLWTSDQQDDDGGEGNN
B3: Nipsnap homolog 1 (protein, UniProt Q9BPW8 36-284)
chain: SKDNEGSWFRSLFVHKVDPRKDAHSTLLSKKETSNLYKIQFHNVKPEYLDAYNSLTEAVLPKLHLDEDYPCSLVGNWNTWYGEQDQAVHLWRFSGGYPALMDCMNKLKNNKEYLEFRRERSQMLLSRRNQLLLEFSFWNEPQPRMGPNIYELRTYKLKPGTMIEWGNNWARAIKYRQENQEAVGGFFSQIGELYVVHHLWAYKDLQSREETRNAAWRKRGWDENVYYTVPLVRHMESRIMIPLKISPLQ
B4: Annexin 1 (protein, UniProt P04083 1-346)
chain: MAMVSEFLKQAWFIENEEQEYVQTVKSSKGGPGSAVSPYPTFNPSSDVAALHKAIMVKGVDEATIIDILTKRNNAQRQQIKAAYLQETGKPLDETLKKALTGHLEEVVLALLKTPAQFDADELRAAMKGLGTDEDTLIEILASRTNKEIRDINRVYREELKRDLAKDITSDTSGDFRNALLSLAKGDRSEDFGVNEDLADSDARALYEAGERRKGTDVNVFNTILTTRSYPQLRRVFQKYTKYSKHDMNKVLDLELKGDIEKCLTAIVKCATSKPAFFAEKLHQAMKGVGTRHKALIRIMVSRSEIDMNDIKAFYQKMYGISLCQAILDETKGDYEKILVALCGGN
B5: Secretory carrier membrane protein 2 (SCAMP2) (protein, UniProt O15127 1-329)
chain: MSAFDTNPFADPVDVNPFQDPSVTQLTNAPQGGLAEFNPFSETNAATTVPVTQLPGSSQPAVLQPSVEPTQPTPQAVVSAAQAGLLRQQEELDRKAAELERKERELQNTVANLHVRQNNWPPLPSWCPVKPCFYQDFSTEIPADYQRICKMLYYLWMLHSVTLFLNLLACLAWFSGNSSKGVDFGLSILWFLIFTPCAFLCWYRPIYKAFRSDNSFSFFVFFFVFFCQIGIYIIQLVGIPGLGDSGWIAALSTLDNHSLAISVIMMVVAGFFTLCAVLSVFLLQRVHSLYRRTGASFQQAQEEFSQGIFSSRTFHRAASSAAQGAFQGN
B6: LIM and SH3 domain protein 1 (LASP-1) (protein, UniProt Q14847 1-261)
chain: MNPNCARCGKIVYPTEKVNCLDKFWHKACFHCETCKMTLNMKNYKGYEKKPYCNAHYPKQSFTMVADTPENLRLKQQSELQSQVRYKEEFEKNKGKGFSVVADTPELQRIKKTQDQISNIKYHEEFEKSRMGPSGGEGMEPERRDSQDGSSYRRPLEQQQPHHIPTSAPVYQQPQQQPVAQSYGGYKEPAAPVSIQRSAPGGGGKRYRAVYDYSAADEDEVSFQDGDTIVNVQQIDDGWMYGTVERTGDTGMLPANYVEAI

For this assay, the target named is CXCR2 stably over-expressed in differentiated HL-60 cells (UniProt P25025). The assay can be described thus: affinity purification with mass spectrometry; anti-CXCR2 rabbit antibody coupled to Sepharose; lysates of differentiated HL-60 cells stably expressing CXCR2, vehicle or 100 ng/ml CXCL8 for 1 min; lysis buffer 50 mM Tris-HCl pH 7.5, 0.05% Triton X-100, 300 mM NaCl; normal rabbit IgG beads as mock, its identifications subtracted; LC/MS/MS.
As to B1, the binding result is “binds”.
Take B2: the binding entry is given as “binds”.
For the molecule B3, the binding result was “binds”.
For B4, the binding entry was “binds”.
With B5 the entry was “binds”; with B6, “binds”.
